Key:
[1] = tested on: carbonic anhydrase (CAII); assay: furosemide binding on immobilized CAII, Epic biosensor (Example 1)
[2] = tested on: carbonic anhydrase (CAII); assay: furosemide binding on immobilized CAII, Epic biosensor (Example 3)
Experimental: Step 3. Binding of protein inhibitor: The plate was equilibrated at ambient (25° C.) temperature for about 30 min before rinsing with PBS (on Biomek, following standard rinsing protocol). The plate was centrifuged and soaked in 0.1% DMSO in PBS for about 4 h at ambient temperature.
The plate was then read in the Epic® instrument for 20 min.

[3] = CAII immobilization on dEMA-thiol-modified Epic 5041 plate surface (Example 1)
[4] = CAII immobilization on cystine-derived thiol-modified Epic 5046 plate surface (Example 2)
[5] = CAII immobilization on thiol-modified copolymer (AA/MAm) surface (Example 3); details: protein:linker 1:6
[6] = CAII concentration 10 micrograms/mL
[7] = CAII concentration 25 micrograms/mL
[8] = CAII concentration 50 micrograms/mL
[9] = CAII concentration 75 micrograms/mL
[10] = CAII concentration 100 micrograms/mL
[11] = surface made with cystamine 50 mM
[12] = surface made with cystamine 200 mM
[13] = surface made with cystamine/glycine 25/25 mM
[14] = surface made with cystamine/glycine 100/100 mM
[15] = surface made with cystine 10 mM
[16] = surface made with saturated cystine

“CAII: carbonic anhydrase (CAII, Sigma), modified with maleimide linker MAL-AHA-NHS at the stated ratio before immobilization; ratio 0 is unmodified” gave an Availability % [1, 6] of −2%, an Availability % [1, 7] of 8% and an Availability % [1, 8] of 18%. For the same substance, the Availability % [1, 9] was 24%, the Availability % [1, 10] was 25% and the Availability % ([1]; binding observed/max binding*100, MAL-AHA-NHS/CAII ratio 0) was −10%. The Availability % ([1]; binding observed/max binding*100, MAL-AHA-NHS/CAII ratio 3) was 20%, the Availability % ([1]; binding observed/max binding*100, MAL-AHA-NHS/CAII ratio 6) was 23% and the Availability % ([1]; binding observed/max binding*100, MAL-AHA-NHS/CAII ratio 12) was 25%. It also gave an Availability % ([1]; binding observed/max binding*100, MAL-AHA-NHS/CAII ratio 24) of 23%, an Availability % ([1]; binding observed/max binding*100, MAL-AHA-NHS/CAII ratio 48) of 22% and an Availability % ([1]; binding observed/max binding*100, MAL-AHA-NHS/CAII ratio 96) of 20%. For the same substance, the Activity % [2, 11] was 23.35%, the Activity % [2, 12] was 28.77% and the Activity % [2, 13] was 27.35%. For the same substance, the Activity % [2, 14] was 26.71%, the Activity % [2, 15] was 26.16% and the Activity % [2, 16] was 22.38%. It also gave a Protein Immob. level [3, 6] of 258 pm, a Protein Immob. level [3, 7] of 514 pm and a Protein Immob. level [3, 8] of 1263 pm. The Protein Immob. level [3, 9] was 2083 pm, the Protein Immob. level [3, 10] was 3174 pm and the “Protein Immob. level” value ([3]; MAL-AHA-NHS/CAII ratio 0 (unmodified CAII)) was 196 pm. For the same substance, the “Protein Immob. level” value ([3]; MAL-AHA-NHS/CAII ratio 3) was 2177 pm, the “Protein Immob. level” value ([3]; MAL-AHA-NHS/CAII ratio 6) was 3248 pm and the “Protein Immob. level” value ([3]; MAL-AHA-NHS/CAII ratio 12) was 4075 pm. The “Protein Immob. level” value ([3]; MAL-AHA-NHS/CAII ratio 24) was 4520 pm, the “Protein Immob. level” value ([3]; MAL-AHA-NHS/CAII ratio 48) was 4612 pm and the “Protein Immob. level” value ([3]; MAL-AHA-NHS/CAII ratio 96) was 4506 pm. For the same substance, the “immobilization level (plateau)” value ([3]; levels off from about 12 to about 100 equivalents of maleimide-linker reagent to protein) was “about 4,500 picometers (pm)”, the Protein immob-level ([4]; Ratio of CAII:Maleimide linker 0 (unmodified protein reference)) was 189 pm and the Protein immob-level ([4]; Ratio of CAII:Maleimide linker 3) was 604 pm. For the same substance, the Protein immob-level ([4]; Ratio of CAII:Maleimide linker 6) was 937 pm, the Protein immob-level ([4]; Ratio of CAII:Maleimide linker 12) was 1522 pm and the Protein immob-level ([4]; Ratio of CAII:Maleimide linker 24) was 2149 pm. For the same substance, the immobilization level ([4]; about 24 equivalents of maleimide-linker reagent to protein) was “about 2,000 picometers (pm)”, the “Total Immob.” value [5, 11] was 2,254.83 RU and the “Total Immob.” value [5, 12] was 2,335.86 RU. The “Total Immob.” value [5, 13] was 2,722.71 RU, the “Total Immob.” value [5, 14] was 2,692.57 RU and the “Total Immob.” value [5, 15] was 2,807.35 RU. For the same substance, the “Total Immob.” value [5, 16] was 3,258.16 RU.

Source: patent US20110212466A1, “Thiol-Modified Surface Immobilization Article And Method” (priority 2009, published 2011)
